Assay results published in patent publication US20240269227A1, “CALCIUM-SENSING RECEPTOR AGONIST COMPOSITION AND APPLICATION THEREOF” (Beijing Tuo Jie Biopharmaceutical Co. Ltd., priority 2021, published 2024).

Chains of the proteins cited; added tags and fusions are not shown. Residues count along the entry.
UniProt P41180, 20-1078: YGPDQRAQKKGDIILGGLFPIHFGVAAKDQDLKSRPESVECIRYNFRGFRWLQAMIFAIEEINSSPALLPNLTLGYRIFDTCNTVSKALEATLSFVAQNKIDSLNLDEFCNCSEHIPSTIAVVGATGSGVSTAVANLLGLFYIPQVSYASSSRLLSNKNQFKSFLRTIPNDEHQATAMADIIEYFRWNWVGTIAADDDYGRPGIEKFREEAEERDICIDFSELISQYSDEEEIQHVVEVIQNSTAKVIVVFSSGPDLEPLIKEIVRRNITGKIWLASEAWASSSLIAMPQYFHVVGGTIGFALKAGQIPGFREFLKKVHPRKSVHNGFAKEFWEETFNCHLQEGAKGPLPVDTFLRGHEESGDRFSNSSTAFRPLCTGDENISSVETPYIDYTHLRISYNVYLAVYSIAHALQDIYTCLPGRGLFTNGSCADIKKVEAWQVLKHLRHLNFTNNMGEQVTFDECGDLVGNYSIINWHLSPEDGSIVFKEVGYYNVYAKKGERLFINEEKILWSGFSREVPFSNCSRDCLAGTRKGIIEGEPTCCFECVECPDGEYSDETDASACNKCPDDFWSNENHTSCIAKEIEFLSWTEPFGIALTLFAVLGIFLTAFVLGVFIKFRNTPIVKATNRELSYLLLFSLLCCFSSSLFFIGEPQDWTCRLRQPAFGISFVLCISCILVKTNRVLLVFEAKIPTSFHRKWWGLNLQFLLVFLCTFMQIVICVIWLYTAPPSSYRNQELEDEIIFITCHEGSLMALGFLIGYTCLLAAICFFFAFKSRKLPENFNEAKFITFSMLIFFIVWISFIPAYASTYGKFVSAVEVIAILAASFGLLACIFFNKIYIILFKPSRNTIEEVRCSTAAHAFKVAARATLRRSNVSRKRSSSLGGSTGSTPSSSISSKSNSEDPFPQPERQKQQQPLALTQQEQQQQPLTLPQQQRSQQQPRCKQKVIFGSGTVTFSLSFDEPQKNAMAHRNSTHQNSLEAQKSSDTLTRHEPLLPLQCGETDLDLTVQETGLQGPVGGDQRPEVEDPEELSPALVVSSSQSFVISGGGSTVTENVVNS

Molecular target: human calcium-sensing receptor (CaSR) (Homo sapiens, UniProt P41180)
Experiment: cell-based

Question: For CC[C@@H](NC(=O)[C@@H](CCCNC(=N)N)NC(=O)[C@@H](CCCNC(=N)N)NC(=O)[C@@H](CSSC[C@H](N)C(=O)O)NC(C)=O)C(=O)N[C@H](CCCNC(=N)N)C(=O)N[C@H](C)C(=O)N[C@H](CCCNC(=N)N)C(N)=O [Compound of formula (I), Ac-c(C)-r-r-(D-Abu)-r-a-r-NH2], which EC50 is on record?
Answer: < 10 µM
